# Measurements published in the supplement of paper PMC8728848.
# Some of the results follow.
# Key:
# Experiment in all cases: glycan array binding signal (z-score within array); higher = stronger binding
# Settings in all cases: glycan notation: IUPAC condensed, linker removed
# [1] = molecular target: GalNAc(b1-4)GlcNAc(b1-2)Man
# Method in brief: (§1)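 From the Consortium for Functional Glycomics database, 3228 arrays were curated, keeping only those whose protein sequence was available. Binding is given as a within-array Z-score averaged across arrays sharing a protein sequence and across linkers. Negative Z-scores can be read as non-binding.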
# [2] = molecular target: GalNAc(b1-4)GlcNAc(b1-2)Man(a1-3)[GalNAc(b1-4)GlcNAc(b1-2)Man(a1-6)]Man(b1-4)GlcNAc(b1-4)GlcNAc
# Method in brief: as §1
# [3] = molecular target: GalNAc(b1-4)GlcNAc(b1-3)GalNAc(b1-4)GlcNAc
# Method in brief: as §1
# [4] = molecular target: GalNAc(b1-4)GlcNAc6S
# Method in brief: as §1
# [5] = molecular target: GalNAc(b1-6)GalNAc
# Method in brief: as §1
# [6] = molecular target: GalNAc3S(b1-4)GlcNAc
# Method in brief: as §1
# [7] = molecular target: GalNAc3S(b1-4)GlcNAc3S
# Method in brief: as §1
# [8] = molecular target: GalNAc3S(b1-4)[Fuc(a1-3)]GlcNAc
# Method in brief: as §1
# [9] = molecular target: GalNAc4S6S(b1-4)GlcNAc
# Method in brief: as §1
# [10] = molecular target: GalNAc6S(b1-4)GlcNAc
# Method in brief: as §1
# [11] = molecular target: Glc(a1-4)Glc
# Method in brief: as §1
# [12] = molecular target: Glc(a1-4)Glc(a1-4)Glc(a1-4)Glc
# Method in brief: as §1
# [13] = molecular target: Glc(a1-6)Glc(a1-6)Glc
# Method in brief: as §1
# [14] = molecular target: Glc(a1-6)Glc(a1-6)Glc(a1-6)Glc
# Method in brief: as §1
# [15] = molecular target: Glc(b1-4)Glc
# Method in brief: as §1
# [16] = molecular target: Glc(b1-6)Glc
# Method in brief: as §1
# [17] = molecular target: GlcA(b1-3)Gal
# Method in brief: as §1
# [18] = molecular target: GlcA(b1-3)GlcNAc
# Method in brief: as §1
# [19] = molecular target: GlcA(b1-6)Gal
# Method in brief: as §1
# [20] = molecular target: GlcA3S(b1-3)Gal(b1-4)GlcNAc(b1-2)Man
# Method in brief: as §1
# [21] = molecular target: GlcA3S(b1-3)Gal(b1-4)GlcNAc(b1-3)Gal(b1-4)Glc
# Method in brief: as §1
# [22] = molecular target: GlcNAc(a1-3)Gal(b1-4)GlcNAc
# Method in brief: as §1
# [23] = molecular target: GlcNAc(a1-4)Gal(b1-3)GlcNAc
# Method in brief: as §1
# [24] = molecular target: GlcNAc(a1-4)Gal(b1-4)GalNAc
# Method in brief: as §1
# [25] = molecular target: GlcNAc(a1-4)Gal(b1-4)GlcNAc
# Method in brief: as §1
# [26] = molecular target: GlcNAc(a1-4)Gal(b1-4)GlcNAc(b1-3)Gal(b1-4)Glc
# Method in brief: as §1
# [27] = molecular target: GlcNAc(a1-4)Gal(b1-4)GlcNAc(b1-3)Gal(b1-4)GlcNAc
# Method in brief: as §1
# [28] = molecular target: GlcNAc(a1-4)Gal(b1-4)GlcNAc(b1-3)Gal(b1-4)GlcNAc(b1-3)Gal(b1-4)GlcNAc
# Method in brief: as §1
# [29] = molecular target: GlcNAc(a1-4)Gal(b1-4)GlcNAc(b1-3)Gal(b1-4)[Fuc(a1-3)]GlcNAc(b1-3)Gal(b1-4)[Fuc(a1-3)]GlcNAc
# Method in brief: as §1
# [30] = molecular target: GlcNAc(a1-6)Gal(b1-4)GlcNAc
# Method in brief: as §1
# [31] = molecular target: GlcNAc(b1-2)Gal(b1-3)GalNAc
# Method in brief: as §1
# [32] = molecular target: GlcNAc(b1-2)Man(a1-3)[GlcNAc(b1-2)Man(a1-6)]Man(b1-4)GlcNAc(b1-4)GlcNAc
# Method in brief: as §1
# [33] = molecular target: GlcNAc(b1-2)Man(a1-3)[GlcNAc(b1-2)Man(a1-6)]Man(b1-4)GlcNAc(b1-4)[Fuc(a1-6)]GlcNAc
# Method in brief: as §1
# [34] = molecular target: GlcNAc(b1-2)Man(a1-3)[GlcNAc(b1-4)][GlcNAc(b1-2)Man(a1-6)]Man(b1-4)GlcNAc(b1-4)GlcNAc
# Method in brief: as §1
# [35] = molecular target: GlcNAc(b1-2)Man(a1-3)[GlcNAc(b1-4)][GlcNAc(b1-2)Man(a1-6)]Man(b1-4)GlcNAc(b1-4)[Fuc(a1-6)]GlcNAc
# Method in brief: as §1
# [36] = molecular target: GlcNAc(b1-2)[GlcNAc(b1-4)]Man(a1-3)[GlcNAc(b1-2)Man(a1-6)]Man(b1-4)GlcNAc(b1-4)GlcNAc
# Method in brief: as §1
# [37] = molecular target: GlcNAc(b1-2)[GlcNAc(b1-4)]Man(a1-3)[GlcNAc(b1-4)][GlcNAc(b1-2)Man(a1-6)]Man(b1-4)GlcNAc(b1-4)GlcNAc
# Method in brief: as §1
# [38] = molecular target: GlcNAc(b1-2)[GlcNAc(b1-4)]Man(a1-3)[GlcNAc(b1-4)][GlcNAc(b1-2)[GlcNAc(b1-6)]Man(a1-6)]Man(b1-4)GlcNAc(b1-4)GlcNAc
# Method in brief: as §1
# [39] = molecular target: GlcNAc(b1-2)[GlcNAc(b1-4)]Man(a1-3)[GlcNAc(b1-4)][GlcNAc(b1-2)[GlcNAc(b1-6)]Man(a1-6)]Man(b1-4)GlcNAc(b1-4)[Fuc(a1-6)]GlcNAc
# Method in brief: as §1
# [40] = molecular target: GlcNAc(b1-2)[GlcNAc(b1-6)]Man(a1-6)[GlcNAc(b1-2)Man(a1-3)]Man(b1-4)GlcNAc(b1-4)GlcNAc
# Method in brief: as §1
# [41] = molecular target: GlcNAc(b1-2)[GlcNAc(b1-6)]Man(a1-6)[GlcNAc(b1-2)Man(a1-3)]Man(b1-4)GlcNAc(b1-4)[Fuc(a1-6)]GlcNAc
# Method in brief: as §1
# [42] = molecular target: GlcNAc(b1-2)[GlcNAc(b1-6)]Man(a1-6)[GlcNAc(b1-4)][GlcNAc(b1-2)Man(a1-3)]Man(b1-4)GlcNAc(b1-4)GlcNAc
# Method in brief: as §1
# [43] = molecular target: GlcNAc(b1-3)Fuc
# Method in brief: as §1
# [44] = molecular target: GlcNAc(b1-3)Gal
# Method in brief: as §1
# [45] = molecular target: GlcNAc(b1-3)Gal(b1-3)GalNAc
# Method in brief: as §1
binder,measurement,setting,value
"Tp0751, 83732 (protein) MSYYHHHHHHLESTSLYKKAGFQHGHVPPRRIPPHDTFGALPTAALPSNARDTAAHPSDTADNTSGSSTTTDPRSHGNAPPAPVGGAAQTHTQPPVQTAMRIALWNRATHGEQGALQHLLAGLWIQTEISPNSGDIHPLLFFDREHAEITFSRASVQEIFLVDSAHTHRKTVSFLTRNTAISSIRRRLEVTFESHEVIHVRAVEDVARLKIGSTSMWDGQYTRYHAGPASAPSP",glycan array binding signal (z-score),[1],-0.66
same,glycan array binding signal (z-score),[2],-0.09
same,glycan array binding signal (z-score),[3],-0.349
same,glycan array binding signal (z-score),[4],-0.636
same,glycan array binding signal (z-score),[5],-0.377
same,glycan array binding signal (z-score),[6],-0.502
same,glycan array binding signal (z-score),[7],-0.623
same,glycan array binding signal (z-score),[8],-0.122
same,glycan array binding signal (z-score),[9],0.019
same,glycan array binding signal (z-score),[10],-0.223
same,glycan array binding signal (z-score),[11],-0.341
same,glycan array binding signal (z-score),[12],0.763
same,glycan array binding signal (z-score),[13],0.038
same,glycan array binding signal (z-score),[14],1.24
same,glycan array binding signal (z-score),[15],-0.041
same,glycan array binding signal (z-score),[16],0.069
same,glycan array binding signal (z-score),[17],0.793
same,glycan array binding signal (z-score),[18],0.084
same,glycan array binding signal (z-score),[19],-0.172
same,glycan array binding signal (z-score),[20],-0.086
same,glycan array binding signal (z-score),[21],-0.3
same,glycan array binding signal (z-score),[22],-0.537
same,glycan array binding signal (z-score),[23],-0.149
same,glycan array binding signal (z-score),[24],-0.219
same,glycan array binding signal (z-score),[25],0.021
same,glycan array binding signal (z-score),[26],-0.55
same,glycan array binding signal (z-score),[27],-0.145
same,glycan array binding signal (z-score),[28],-0.214
same,glycan array binding signal (z-score),[29],1.63
same,glycan array binding signal (z-score),[30],0.248
same,glycan array binding signal (z-score),[31],-0.378
same,glycan array binding signal (z-score),[32],0.716
same,glycan array binding signal (z-score),[33],0.127
same,glycan array binding signal (z-score),[34],-0.545
same,glycan array binding signal (z-score),[35],-0.665
same,glycan array binding signal (z-score),[36],0.091
same,glycan array binding signal (z-score),[37],-0.351
same,glycan array binding signal (z-score),[38],-0.179
same,glycan array binding signal (z-score),[39],-0.299
same,glycan array binding signal (z-score),[40],-0.073
same,glycan array binding signal (z-score),[41],0.781
same,glycan array binding signal (z-score),[42],-0.584
same,glycan array binding signal (z-score),[43],-0.135
same,glycan array binding signal (z-score),[44],-0.494
same,glycan array binding signal (z-score),[45],-0.282
